Data reported in PMC10458596 (Pharmaceuticals, 2023).
HELM strings list residues between dots; [ac] is acetyl, [am] amide, other brackets name non-standard units.

Experiment: general procedure: Fmoc solid-phase peptide synthesis; Rink-amide MBHA or 2-CTC; HBTU/DIPEA or DIC/DMAP
Details: whole synthesis, HPLC

Row | Substance | purity (crude or final not stated)
1 | PEPTIDE1{F.E.L.L.[am]}$$$$V2.0 | 99%
2 | PEPTIDE1{F.E.V.V.[am]}$$$$V2.0 | 96%
3 | PEPTIDE1{F.E.L.L}$$$$V2.0 | 98%
4 | PEPTIDE1{F.E.[Nle].[Nle].[am]}$$$$V2.0 | 96%
5 | H-Phe-Glu-Ile-Ile-NH2 | 97%
